# Assays:
# in vitro = conditions: human, Caco-2, pH 7.4
compound,measurement,setting,value
CC(C)NCC(O)COc1ccc(CC(N)=O)cc1 (stereo not shown) [Atenolol],"Papp A→B at 90 min, 100 μM",in vitro,1.08 ×10⁻⁶ cm/s
same,"Papp B→A at 90 min, 100 μM",in vitro,2.29 ×10⁻⁶ cm/s
same,"Peff A B, Range","Caco-2 cell monolayer; pH 7.4 Caco-2, A to B",0.69-1.80 ×E−6 cm/sec
same,"Peff B A, Range","Caco-2 cell monolayer; pH 7.4 Caco-2, B to A",1.69-2.68 ×E−6 cm/sec

# — patent US9475824B2, “Fused pyrimidines as inhibitors of p97 complex” (Cleave Biosciences, Inc., priority 2012, dated 2016)
